# PubChem BioAssay AID743454 | Peter MacCallum Cancer Centre | 2014
# Purpose: 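Search for knock-downs that restore vorinostat killing in resistant colon cancer cells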 (primary screen)
# Cells: human HCT116-VR colon cancer cells, selected for vorinostat resistance
# Reagents: siRNA pool against human genes, 40 nM siRNA pool
# Timing: vorinostat for 24 h, read-out about 72 h after transfection
# Conditions: vorinostat at 2.5 µM final
# Measurement: 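Cell viability by CellTiter-Fluor and caspase 3/7 activity by luminescence, each scaled to mock wells per plate, duplicates averaged, then robust z-scored over all plates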
# Reading the numbers: viability robust z-score: higher = more viable cells than screen typical; caspase robust z-score: higher = more caspase 3/7 activity than screen typical
# Active means: 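a knock-down is a hit when classed RV1 or RV2 for lowered viability, or CA1 or CA2 for caspase activation; those lethal without drug were dropped; hits were retested singly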
# Here is one part, drawn at random, of about 18,000 reagents tested. Of all reagents, 450 (2.5%) got an active call. 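Single biological run; no consistent viability z cut-off exists, so the class columns, not z-scores, define the calls.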 A number with no mark means an inactive call.
gene,viability hit class,caspase hit class,viability robust z-score,caspase robust z-score
EFCAB14 (EF-hand calcium binding domain 14),no change,no change,-3.3,1.44
CPA6 (carboxypeptidase A6),no change,no change,1.14,-0.3
PRAMEF7 (PRAME family member 7),no change,no change,-1.5,3.06
DLAT (dihydrolipoamide S-acetyltransferase),no change,no change,1.02,0.2
SMIM19 (small integral membrane protein 19),no change,no change,0.34,-0.55
C8orf76 (chromosome 8 open reading frame 76),no change,no change,-0.07,-0.14
KRTAP3-2 (keratin associated protein 3-2),no change,no change,0.2,0.55
PARP15 (poly(ADP-ribose) polymerase family member 15),no change,no change,-0.32,4.13
C20orf204 (chromosome 20 open reading frame 204),no change,no change,-2.41,2.53
CST2 (cystatin SA),no change,no change,-1.38,2.26
ORC6 (origin recognition complex subunit 6),no change,no change,1.25,-0.38
PDP1 (pyruvate dehydrogenase phosphatase catalytic subunit 1),no change,no change,-0.51,1.16
DUS3L (dihydrouridine synthase 3 like),no change,no change,-0.79,3.08
CREB1 (cAMP responsive element binding protein 1),no change,no change,-1.15,1.34

The list goes on (2 carried over from the part before).
gene,viability hit class,caspase hit class,viability robust z-score,caspase robust z-score
DUS3L (dihydrouridine synthase 3 like),no change,no change,-0.79,3.08
CREB1 (cAMP responsive element binding protein 1),no change,no change,-1.15,1.34
BTNL2 (butyrophilin like 2),no change,no change,0.29,-0.5
ZNF775 (zinc finger protein 775),no change,no change,-1.06,0.5
TSPAN2 (tetraspanin 2),no change,no change,0.32,-0.23
IL17RD (interleukin 17 receptor D),no change,no change,0.13,1.03
ITIH3 (inter-alpha-trypsin inhibitor heavy chain 3),no change,no change,0.64,0.12
MIS18A (MIS18 kinetochore protein A),no change,no change,0.46,-0.15
ZNF14 (zinc finger protein 14),no change,no change,-1.21,-0.44
GLS (glutaminase),no change,no change,-0.29,0.45
TAGLN2 (transgelin 2),no change,no change,-0.04,-0.65
CDY1B (chromodomain Y-linked 1B),no change,no change,-0.57,4.61
MIOS (meiosis regulator for oocyte development),no change,no change,1.61,0.24
"ST8SIA3 (ST8 alpha-N-acetyl-neuraminide alpha-2,8-sialyltransferase 3)",no change,no change,1.24,1.45
ADCY8 (adenylate cyclase 8),no change,no change,-0.46,-0.77
SRSF5 (serine and arginine rich splicing factor 5),no change,no change,-0.53,4.29
SRD5A1 (steroid 5 alpha-reductase 1),no change,no change,-1.6,0.25
DNAJB9 (DnaJ heat shock protein family (Hsp40) member B9),no change,no change,0.29,1.6
GRIPAP1 (GRIP1 associated protein 1),no change,no change,0.88,-1.15
AIF1L (allograft inflammatory factor 1 like),no change,no change,-0.79,0.14
MAP1S (microtubule associated protein 1S),RV2 (reduced viability) (active),no change,-2.92,0.72
PPP1R14C (protein phosphatase 1 regulatory inhibitor subunit 14C),no change,no change,-1.23,0.04
SZRD1 (SUZ RNA binding domain containing 1),no change,no change,-0.04,-0.5
RS1 (retinoschisin 1),no change,no change,-0.5,-0.83
SAPCD2 (suppressor APC domain containing 2),no change,no change,0.57,-0.9
TDG (thymine DNA glycosylase),no change,no change,1.09,-0.7
DEFB108B (defensin beta 108B),no change,no change,-0.7,0.5
